Results taken from US11029303B2, “PAH antibodies and uses thereof” (The Administrators of the Tulane Educational Fund, priority 2015, dated 2021).
Some results were stated once for a whole list of compounds, not compound by compound.

The molecules below were run on YCM3 yeast cells (assay: Toxicity to yeast cells in the yeast bioassay (inhibition of cell accumulation)). Conditions: 18 hr incubation.
Assay type: cell-based, Saccharomyces cerevisiae
Method: Yeast bioassay. The YCM3 yeast cells were diluted into the galactose medium to a final A600 nm of 0.04, plated into 96-well plates at 200 μl/well, and treated with various concentrations of PAHs for 18 hr at 30° C. During this time, the human AhR and aryl hydrocarbon receptor nuclear translocator (ARNT) were expressed in the presence of galactose and activated by PAH ligands in the cell to form the aryl hydrocarbon receptor complex (AHRC). After 18 hrs of incubation, yeast cells were suspended by pipetting, a 25 μl aliquot from each well was transferred into another 96-well assay plate and mixed with 225 μl substrate solution (60 mM Na2HPO4, 40 mM NaH2PO4, 1 mM MgCl2, 10 mM KCl, 0.2% sarkosyl, 1 mM dithiothreitol, and 0.4 mg/ml ortho-nitrophenyl-β-galactoside; pH, 7.0). The assay plate was incubated for ˜5 min at 37° C. and then 100 μl of a 1M Na2CO3 solution was added to stop the reaction and enhance the yellow color. Cell densities were determined from the first 96-well plate by measuring A600 nm and the color intensities of LacZ reactions determined by A405 nm from the corresponding wells of the second plate.
During the induction process, YCM3 yeast cells were incubated with varying concentrations of phenanthrene and its methylated derivatives and their signaling activities were measured via a colorimetric substrate. 1% DMSO was used as the solvent control, since the PAHs were dissolved in this vehicle. The positive controls were β-naphthoflavone (BNF), which has been previously reported as a strong agonist of aryl hydrocarbon receptor (Alnafisi et al., 2007; De Nobel and Barnett, 1991). Because the inventors also wanted to compare unsubstituted phenanthrene to the methylated derivatives, a control of 100 μM phenanthrene was also included in each assay. […] Differences in cell growth at the end of the 18 hr incubation period were normalized by measuring each culture's absorbance at 600 nm.

| SMILES | concentration above which toxic to the yeast cells |
| --- | --- |
| Cc1ccc2ccc3ccccc3c2c1 [Clone 3-MP, 3-methylphenanthrene] | above 50 μM |
| Cc1cccc2ccc3ccccc3c12 [Clone 4-MP, 4-methylphenanthrene] | above 50 μM |
| Cc1ccc2c(ccc3ccccc32)c1 [Clone 2-MP, 2-methylphenanthrene] | above 50 μM |
